Small-molecule microarray binding calls

From ROBIN, a set of small-molecule microarray screens (doi:10.1002/anie.202211358).

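The test is a small-molecule microarray: each compound is printed twice on a reactive slide, and binding shows as fluorescence of the labelled oligonucleotide after washing. The data file lists only calls. An earlier report of the laboratory on the PreQ1, TPP and SAM-II riboswitches (doi:10.1038/s41467-019-09493-3) used 1 µM RNA for 2 h and required a mean Z-score above 3 (spot signal-to-noise against the whole library), a score well above that on a control array, and duplicate spots agreeing (coefficient of variation under 100); it then also set aside compounds that hit other targets, which this list keeps. The cut-offs behind this list may differ. The calls come from the array alone, and fixing a compound to the slide can hide its binding.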
“hit” means called a hit, “no hit” means screened and not called a hit.
This is an unselected part of the compounds tested.
A target missing from an entry has no call listed here.

Oligonucleotides screened, 5′ to 3′:
TPP: TPP riboswitch RNA three-way junction, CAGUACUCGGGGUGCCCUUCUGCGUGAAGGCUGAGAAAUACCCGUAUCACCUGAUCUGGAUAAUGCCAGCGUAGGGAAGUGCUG. About 160 hits among about 24,000 compounds.
PreQ1: PreQ1 riboswitch RNA pseudoknot, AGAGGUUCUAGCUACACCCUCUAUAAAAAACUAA. From B. subtilis. About 170 hits among about 24,000 compounds.
SAM-II: SAM-II riboswitch RNA pseudoknot, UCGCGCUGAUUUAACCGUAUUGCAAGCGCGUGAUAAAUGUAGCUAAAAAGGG. About 200 hits among about 21,000 compounds.

COc1ccc(CNCc2cccc(Cl)c2)cc1 was scored TPP: no hit; PreQ1: no hit; SAM-II: no hit.
CCC(CNC1CSCCSC1)N1CCOCC1 (stereo unspecified) was scored TPP: no hit; PreQ1: no hit; SAM-II: no hit.
Fc1ccc(-c2noc3ncnc(NCC4CCCO4)c23)cc1 (stereo unspecified) was scored TPP: no hit; PreQ1: no hit.
CNS(=O)(=O)c1ccc(CN2C[C@H](O)[C@@H](N3CCN(C)CC3)C2)cc1 was scored TPP: no hit; PreQ1: no hit; SAM-II: no hit.
O=C(NC1c2ccccc2-c2ccccc21)c1cc2n(n1)CCCNC2 was scored TPP: no hit; PreQ1: no hit; SAM-II: hit.
N#CC1=C(N)Oc2c(ccc3ccccc23)C1c1ccsc1 (stereo unspecified) was scored TPP: no hit; PreQ1: hit; SAM-II: no hit.
COc1cccc(N2CC(c3nc4ccccc4n3CC(O)COc3cccc(C)c3)CC2=O)c1 (stereo unspecified) was scored TPP: no hit; PreQ1: no hit.
c1ccc(COc2ccc(C3Nc4cccc5cccc(c45)N3)cc2)cc1 was scored TPP: no hit; PreQ1: no hit; SAM-II: hit.
O=c1c2ccccc2ncn1-c1ccc(Cl)cc1 was scored TPP: no hit; PreQ1: no hit; SAM-II: no hit.
COc1ccc(NC2CC(=O)N(c3ccccc3Cl)C2=O)cc1 (stereo unspecified) was scored TPP: no hit; PreQ1: no hit; SAM-II: no hit.
Cc1c(S(=O)(=O)c2ccccc2)c(N)n(CCN2CCCC2)c1C was scored TPP: no hit; PreQ1: no hit; SAM-II: no hit.
CS(=O)(=O)Oc1ccc2c(NC(N)=O)c(C(=O)c3ccc(Cl)cc3Cl)oc2c1 was scored TPP: no hit; PreQ1: no hit; SAM-II: no hit.
CO[C@H]1CN(C(=O)c2cn(C(C)C)cc(C(=O)O)c2=O)CC[C@H]1N was scored TPP: no hit; PreQ1: no hit; SAM-II: no hit.
CCCc1cc(NCCN(C)C)n2nc3nc(C)cc(C)c3c2n1 was scored TPP: no hit; PreQ1: no hit.
CCc1cc(N2CCC(NCCn3ccnc3)CC2)nc(N2CCCC2)n1 was scored TPP: no hit; PreQ1: no hit; SAM-II: no hit.
COc1ccc([C@H]2CN(C(=O)c3csc4c3CCCC4)C[C@@H]2N)cc1 was scored TPP: no hit; PreQ1: no hit; SAM-II: no hit.
COc1ccc(C(=O)N2CCC3(CC2)CNC(C(=O)O)C3)cc1F (stereo unspecified) was scored TPP: no hit; PreQ1: no hit; SAM-II: no hit.
Cc1cc(C)c2c(N)c(C(=O)Oc3ccc(Cl)cc3)sc2n1 was scored TPP: no hit; PreQ1: no hit; SAM-II: no hit.
O=C1CC(N2CCN(CCO)CC2)C(=O)N1c1ccccc1 (stereo unspecified) was scored TPP: no hit; PreQ1: no hit; SAM-II: no hit.
Cc1cccc(OCC(O)Cn2cnc3ccccc32)c1 (stereo unspecified) was scored TPP: no hit; PreQ1: no hit; SAM-II: no hit.